Measurements as given in patent US20260259232A1, “A METHOD” (OWLSTONE MEDICAL LIMITED, priority 2022, published 2026).

Experiment: Breath analysis by SIFT-MS before and after ingestion of 75 g glucose in healthy subjects
Assay type: in vivo, human
Settings: 10 healthy subjects; 75 grams of glucose

Question: With `CC(=O)C(C)O` (stereo not drawn) [acetoin] as the compound, how does the “Spike in breath elicited by glucose administration” value (from here on “Spike in breath elicited”) read?
Answer: spike of acetoin in all the subjects

Question: For `CCO` [ethanol], which “Spike in breath elicited” value is on record?
Answer: spike of ethanol in breath in all the tested subjects

Question: Which “Spike in breath elicited” value does the source give for `CC(O)C(C)O` (stereo not drawn) [2-3-Butanediol, 2,3-butanediol] here?
Answer: No spike
